Experimental data as given in patent US6743925B1, “Nitroimidazole derivative and diagnostic imaging agent containing the same” (Pola Chemical Industries, Inc., priority 1999, dated 2004).
Some of these results come from one statement about several compounds together. For at least one compound, name, drawing or mass did not settle the structure.

Test system: cancer-bearing mice (WHT/Ht albino mice), squamous-cell carcinoma and fibrosarcoma
Experiment: Radiation intensity of each organ after intravenous injection to cancer-bearing mice
Type: in vivo
Settings: summary of Table 1
Description: Compound 4 of Example 4 was intravenously injected to cancer-bearing mice (WHT/Ht albino mice) (3 mice per group). Systemic frozen sections of each mouse were prepared 10, 30, 60, 120, and 150 minutes after intravenous injection, and the radiation intensity of each organ was measured. Squamous-cell carcinoma and fibrosarcoma were employed as cancer sources. When the sections was prepared, blood was collected separately, and the ratio of radiation intensity in each organ to that in blood was obtained.

SMILES: CC(=O)OCC(COS(=O)(=O)c1ccc(C)cc1)OCn1ccnc1[N+](=O)[O-] (centres unmarked) [Compound 1, 1-[2-(toluene-4-sulfoxy)-1-(acetoxymethyl)ethoxy]methyl-2-nitroimidazole]
- concentrations in the tumor versus the blood or the other organs except those related with metabolism: higher
- ratio of the concentration in the tumor to that in the blood: 2-4
